Measurements reported in the supplement of paper PMC5407854, “Inhibitor of ppGalNAc-T3-mediated O-glycosylation blocks cancer cell invasiveness and lowers FGF23 levels” (eLife, 2017).
The list shows a part of the results. Most entries show no effect beyond the scatter of the controls.

system: ppGalNAc-T3 sensor; assay: T3 sensor activation Q score (MG/GFP ratio z-score vs DMSO controls) (SD units); higher = more sensor activation (inhibition of ppGalNAc-T3 glycosylation); settings: HEK293 sensor cells; 10 µM; 6 h
Experimental: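 Cells were treated with compound at 10 uM for 6 h, then MG/GFP ratio was read by flow cytometry (10,000 cells per well, duplicate wells). Q = (R - R_neg)/SD_neg relative to DMSO vehicle controls; the signal rises when the glycosyltransferase is inhibited.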

Row | Structure (SMILES) | T3 sensor activation Q score
1 | COc1cc(C)c(CN2CCC(O)CC2)cc1C | 0.185
2 | Cc1occc1C(=O)Nc1ccc(F)cc1F | -0.925
3 | COc1cccc(N(C(C)=O)C2=C(N3CCCC3)C(=O)c3ccccc3C2=O)c1 | -0.765
4 | COc1cc(CN2CCCN(C)CC2)cc([N+](=O)[O-])c1O | -1.1
5 | O=S(=O)(c1ccc(Cl)c(Cl)c1)N1CCCCC1 | 0.495
6 | c1ccc2c(c1)-c1ccccc1C2N1CCNCC1 | -0.685
7 | COc1cc2c(cc1OC)CN(Cc1ccccc1Cl)CC2 | 0.1
8 | Cc1cccc(NC(=O)CCCC(=O)O)c1 | -0.265
9 | COc1ccc(CN2CCN(c3cccc(C)c3C)CC2)c(OC)c1OC | -0.305
10 | CC(=O)c1cccc(Nc2nc(-c3ccc(Cl)cc3)cs2)c1 | -0.685
11 | O=C1Cc2ccccc2C(c2ccccc2Cl)N1 (stereo not given) | 0.185
12 | Cc1ccc(OCC(O)CN)cc1 (stereo not given) | -0.1
13 | Cc1cc(C)n(C(=O)c2ccc(F)cc2)n1 | 0.635
14 | Cc1ccc(S(=O)(=O)n2ccc(C)n2)cc1 | 2.6
15 | NC(=O)C(=O)Nc1ccc(Cl)cc1 | 0.4
16 | CCCN(CCO)Cc1ccc(Cl)cc1Cl | 0.195
17 | O=C(CCCOc1ccc(Cl)cc1Cl)NO | -0.585
18 | COc1ccc(CN2CCC(O)CC2)cc1C | 0.92
19 | CCCNC(=O)NC(C)C12CC3CC(CC(C3)C1)C2 (stereo not given) | 0.7
20 | Fc1cccc(CN2CCc3c([nH]c4ccccc34)C2)c1 | 0.11

Row | Structure (SMILES) | T3 sensor activation Q score
21 | Cc1ccccc1NS(=O)(=O)c1ccc(Cl)cc1 | 0.315
22 | Cc1ccc2c(c1)c1c3n2CCCNC3CCC1 (stereo not given) | 0.185
23 | Nc1nnc(Cc2ccc(Cl)cc2Cl)s1 | 0.35
24 | OC1CCN(Cc2ccc(Br)s2)CC1 | -0.285
25 | CC(C)c1ccc(NC(=O)c2cnccn2)cc1 | 0.545
26 | O=c1c2c(nc3n1CC(O)CS3)-c1ccccc1CC21CCCC1 (stereo not given) | -0.22
27 | O=C(O)C1CCCCN1C(=O)c1ccccc1 (stereo not given) | -0.35
28 | CC(=O)c1cc(F)c(N2CCN(C(=O)c3cc(F)c(F)cc3C)CC2)cc1C | 0.375
29 | CC1CCN(S(=O)(=O)c2ccc(F)cc2)CC1 | -0.33
30 | Cc1ccsc1CN1CCN(c2ccc(Cl)cc2)CC1 | 0.255
31 | C=CCN1C(=O)C(O)=C(C(C)=O)C1c1ccc(Br)cc1 (stereo not given) | 0.09
32 | Cc1ccc(OCC(O)CN2CCN(c3ccccc3)CC2)c(C)c1 (stereo not given) | -0.45
33 | CN1C(=O)C(=O)C(=C(O)c2ccc(Cl)cc2)C1c1ccccc1 (stereo not given) | -0.48
34 | Cc1ccc(S(=O)(=O)Nc2ccc(Cl)c(Cl)c2)cc1 | 0.46
35 | CN(Cc1ccccc1)C(=O)c1ccc(Br)cc1 | 0.435
36 | CN(C)CCN(C)Cc1cccc(F)c1 | -0.3
37 | COc1ccc(CN2CCN(c3ccccc3)CC2)c(OC)c1OC | 1.22
38 | O=C(O)C1CCCCC1C(=O)Nc1ccc(Cl)cc1 (stereo not given) | -0.53
39 | CC(=O)Nc1ccc(S(=O)(=O)NC2CCCCC2)cc1 | -0.94
40 | Cc1nc2ccc3[nH]snc3c2n1 | 0.12

A second format for two compounds above.
Cc1ccccc1NS(=O)(=O)c1ccc(Cl)cc1
  T3 sensor activation Q score: 0.315
Cc1ccc2c(c1)c1c3n2CCCNC3CCC1 (stereo not given)
  T3 sensor activation Q score: 0.185
